According to patent publication US5874529A (Peptor Ltd., priority 1994, dated 1999):

Assay: solid-phase peptide synthesis
Conditions: whole synthesis

| Substance | isolated mass | final HPLC purity (HPLC (Method G), scale of the general procedure 0.1 mmol, 0.25 mmol) | isolated yield (scale of the general procedure 0.1 mmol, 0.25 mmol) | isolated mass (scale 0.250 mmole) | isolated yield (scale 0.250 mmole) |
| --- | --- | --- | --- | --- | --- |
| Ada-D-Arg-Arg-N^α (6-acetamidohexylene)Gly-Hyp-Phe-D-Asp(NH-Me)-D-Phe-Phe-Arg-OH | 48 mg | 93% | 64% |  |  |
| H-D-Arg-Arg-cyclo(N^α (4-propanoyl)Gly-Hyp-Phe-N^α (3-amido-propyl)-S-Phe)-Ser-D-Phe-Phe-Arg-OH |  |  |  | 74 mg | 42% |
